The target of this assay is VZV ORF4 protein tagged with maltose-binding protein (MBP-ORF4) (varicella-zoster virus (VZV)) (UniProt P09269). As to the kind of experiment: co-IP; cells co-transfected with PML IV and MBP-ORF23 or MBP-ORF4; lysed in high salt buffer (450 mM NaCl, 0.5% NP-40), diluted with NaCl-free buffer; anti-MBP antibody on sepharose beads, 4 °C, 4 hr; washed six times in 20 mM HEPES pH 7.2, 90 mM NaCl, 1.5 mM MgCl2, 0.5% NP-40, 20% glycerol; PML IV detected by blot with rabbit polyclonal anti-PML.

Protein sequences, listed by entry. Tags and fused reporters are not part of them. Lines headed by an entry give the natural chain unless they say otherwise; changes in a name come on top. Chains listed by the source or under a name are the forms on record and can include a tag or linker.
UniProt P09269: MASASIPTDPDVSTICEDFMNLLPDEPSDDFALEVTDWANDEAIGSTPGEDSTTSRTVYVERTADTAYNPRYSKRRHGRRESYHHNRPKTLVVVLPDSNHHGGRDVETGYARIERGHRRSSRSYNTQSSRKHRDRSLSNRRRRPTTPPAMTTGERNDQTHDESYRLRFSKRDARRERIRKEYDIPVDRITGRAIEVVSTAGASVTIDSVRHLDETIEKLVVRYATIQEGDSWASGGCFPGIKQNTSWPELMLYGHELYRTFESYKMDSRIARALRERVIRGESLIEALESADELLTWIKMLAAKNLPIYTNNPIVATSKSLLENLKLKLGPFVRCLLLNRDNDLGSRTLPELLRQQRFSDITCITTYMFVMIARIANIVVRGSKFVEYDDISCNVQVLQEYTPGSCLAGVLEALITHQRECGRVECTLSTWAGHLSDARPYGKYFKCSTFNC
Promyelocytic leukemia protein isoform IV (PML IV) (P29590-5, form named): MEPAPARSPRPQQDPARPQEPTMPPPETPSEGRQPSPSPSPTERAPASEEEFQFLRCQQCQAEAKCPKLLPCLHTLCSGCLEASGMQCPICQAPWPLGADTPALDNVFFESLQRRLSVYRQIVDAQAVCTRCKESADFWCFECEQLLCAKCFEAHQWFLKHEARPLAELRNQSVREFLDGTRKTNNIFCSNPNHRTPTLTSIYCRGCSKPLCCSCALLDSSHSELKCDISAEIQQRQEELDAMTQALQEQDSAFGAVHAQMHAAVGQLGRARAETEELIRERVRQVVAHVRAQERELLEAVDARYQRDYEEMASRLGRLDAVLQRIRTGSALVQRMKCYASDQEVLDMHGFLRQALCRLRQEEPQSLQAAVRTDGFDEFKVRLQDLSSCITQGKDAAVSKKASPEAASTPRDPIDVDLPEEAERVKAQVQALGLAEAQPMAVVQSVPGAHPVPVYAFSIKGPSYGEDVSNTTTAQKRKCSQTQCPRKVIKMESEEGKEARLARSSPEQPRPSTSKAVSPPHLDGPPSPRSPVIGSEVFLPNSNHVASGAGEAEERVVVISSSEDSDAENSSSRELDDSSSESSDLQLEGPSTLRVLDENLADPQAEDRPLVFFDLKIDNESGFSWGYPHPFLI

These are yes or no findings as the source states them, for the method shown. Binding seen in cells or lysates may run through a third protein.

Consider “Promyelocytic leukemia protein isoform IV (PML IV) (from UniProt P29590-5 1-633)”, for which the binding result is reported as “no binding”.

Values taken from PMC3033373.
